The supplement of paper PMC10331698
± gives the standard deviation of the averaged measurements. Most values lie at the level of the controls, where differences are scatter.

What was measured:
Assay in all cases: level (log10 ratio to DMSO vehicle control); higher = higher biomarker level / cell amount than vehicle control
[1] = compound: C=C(C)C(=O)OCC(F)(F)C(F)(F)C(F)(F)C(F)(F)C(F)(F)C(F)(F)C(F)(F)F; conditions: in DMSO
Method: (§1)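 BioMAP Diversity Plus panel of 12 human primary cell co-culture systems (3C, 4H, LPS, SAg, BT, BF4T, BE3C, CASM3C, HDF3CGF, KF3CT, MyoF, Mphg). Compounds were added 1 h before stimulation and left for 24 h (MyoF 48 h; BT 72 h for soluble read-outs or 6 d for IgG). Biomarkers were read by ELISA, cytotoxicity by SRB, PBMC viability and proliferation by Alamar Blue. Each well value was divided by the mean of 8 DMSO control wells on the same plate and log10 transformed; duplicate blinded samples were tested at 4 concentrations.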

[2] = compound: C=CC(=O)OCC(F)(F)C(F)(F)C(F)(F)C(F)(F)C(F)(F)C(F)(F)C(F)(F)F [1H,1H-Perfluorooctyl acrylate]; conditions: 2200 nM; in DMSO
Method: as §1

[3] = compound: C=CC(F)(F)C(F)(F)C(F)(F)C(F)(F)C(F)(F)C(F)(F)C(F)(F)C(F)(F)C=C [1,8-Divinylperfluorooctane]; conditions: in DMSO
Method: as §1

[4] = compound: COC(=O)C(F)(F)C(F)(F)OC(F)(C(F)(F)F)C(F)(F)OC(F)=C(F)F [Methyl perfluoro(3-(1-ethenyloxypropan-2-yloxy)propanoate)]; conditions: in DMSO
Method: as §1

[5] = compound: CO[Si](C)(CCC(F)(F)C(F)(F)C(F)(F)C(F)(F)C(F)(F)C(F)(F)F)OC [Dimethoxymethyl((perfluorohexyl)ethyl)silane]; conditions: in DMSO
Method: as §1

[6] = compound: FC(F)(F)C(F)(F)C(F)(F)CC1CO1 [1H,1H-Heptafluorobutyl epoxide]; conditions: 2200 nM; in DMSO
Method: as §1

Heptafluorobutyl iodide = compound: FC(F)(F)C(F)(F)C(F)(F)CI [Heptafluorobutyl iodide]; conditions: 2200 nM; in DMSO
Method: as §1

[7] = compound: NC(=O)C(F)(F)C(F)(F)C(F)(F)C(F)F; conditions: in DMSO
Method: as §1

Pentafluoropropionamide = compound: NC(=O)C(F)(F)C(F)(F)F [Pentafluoropropionamide]; conditions: 2200 nM; in DMSO
Method: as §1

[8] = compound: NS(=O)(=O)C(F)(F)C(F)(F)C(F)(F)C(F)(F)C(F)(F)C(F)(F)C(F)(F)C(F)(F)F [Perfluorooctanesulfonamide]; conditions: in DMSO
Method: as §1

[9] = compound: O=C(O)C(F)(F)C(F)(F)C(F)F [4H-Perfluorobutanoic acid]; conditions: in DMSO
Method: as §1

[10] = compound: O=P(O)(O)CCC(F)(F)C(F)(F)C(F)(F)C(F)(F)C(F)(F)C(F)(F)F [2-(Perfluorohexyl)ethylphosphonic acid]; conditions: 2200 nM; in DMSO
Method: as §1

[11] = compound: O=S(=O)(F)C(F)(F)C(F)(F)C(F)(F)C(F)(F)C(F)(F)C(F)(F)C(F)(F)C(F)(F)F [Perfluorooctanesulfonyl fluoride]; conditions: 2200 nM; in DMSO
Method: as §1

[12] = compound: O=S(=O)(O)C(F)(F)C(F)(F)C(F)(F)C(F)(F)C(F)(F)C(F)(F)C(F)(F)C(F)(F)F [Perfluorooctanesulfonic acid]; conditions: 2200 nM; in DMSO
Method: as §1

[13] = compound: O=S(=O)(O)C(F)(F)C(F)(F)C(F)(F)C(F)(F)C(F)(F)C(F)(F)C(F)(F)C(F)(F)F [Potassium perfluorooctanesulfonate]; conditions: 2200 nM; in DMSO
Method: as §1

[14] = compound: O=S(=O)(OCC(F)(F)F)C(F)(F)C(F)(F)C(F)(F)C(F)(F)F [2,2,2-Trifluoroethyl perfluorobutanesulfonate]; conditions: 2200 nM; in DMSO
Method: as §1

[15] = compound: OCC(F)(F)C(F)(F)C(F)(F)C(F)(F)C(F)(F)C(F)F [1H,1H,7H-Dodecafluoro-1-heptanol]; conditions: 2200 nM; in DMSO
Method: as §1

[16] = compound: OCCCCC(F)(F)C(F)(F)C(F)(F)C(F)(F)F [4:4 Fluorotelomer alcohol]; conditions: 2200 nM; in DMSO
Method: as §1

Test System | level (log10) ([1]; 740 nM) | level (log10) ([1]; 2200 nM) | level (log10) [2] | level (log10) ([3]; 740 nM) | level (log10) ([3]; 2200 nM) | level (log10) ([4]; 740 nM) | level (log10) ([4]; 2200 nM) | level (log10) ([5]; 740 nM) | level (log10) ([5]; 2200 nM) | level (log10) [6] | level (log10) (Heptafluorobutyl iodide) | level (log10) ([7]; 2200 nM) | level (log10) ([7]; 6700 nM) | level (log10) ([7]; 20000 nM) | level (log10) ([7]; 60000 nM) | level (log10) (Pentafluoropropionamide) | level (log10) ([8]; 2200 nM) | level (log10) ([8]; 6700 nM) | level (log10) ([8]; 20000 nM) | level (log10) ([9]; 2200 nM) | level (log10) ([9]; 6700 nM) | level (log10) ([9]; 20000 nM) | level (log10) ([9]; 60000 nM) | level (log10) [10] | level (log10) [11] | level (log10) [12] | level (log10) [13] | level (log10) [14] | level (log10) [15] | level (log10) [16]
HDF3CGF:CD106/VCAM-1 | -0.046 ± 0.051 | -0.0125 ± 0.0064 | -0.051 ± 0.072 | -0.0455 ± 0.032 | 0.0035 ± 0.0092 | -0.0645 ± 0.044 | -0.0695 ± 0.019 | -0.017 ± 0.042 | -0.01 ± 0.0042 | 0.0235 ± 0.005 | 0.0595 ± 0.0064 | -0.0345 ± 0.023 | -0.0285 ± 0.019 | -0.014 ± 0.024 | -0.04 ± 0.078 | -0.0415 ± 0.046 | -0.047 ± 0.078 | -0.147 ± 0.027 | -0.364 ± 0.023 | -0.0535 ± 0.026 | -0.0385 ± 0.018 | -0.0525 ± 0.022 | -0.0445 ± 0.096 | 0.0145 ± 0.018 | -0.0395 ± 0.056 | -0.0505 ± 0.015 | -0.0505 ± 0.0078 | -0.018 ± 0.0028 | 0.007 ± 0.0085 | -0.027 ± 0.09
HDF3CGF:CXCL8/IL-8 | 0.006 ± 0.014 | 0.001 ± 0.0099 | 0 ± 0.011 | -0.0025 ± 0.0021 | -0.009 ± 0.016 | 0 ± 0.0071 | 0.012 ± 0.0099 | 0.008 | -0.0025 ± 0.0021 | 0.0065 ± 0.028 | 0.0005 ± 0.0035 | 0.0015 ± 0.00071 | -0.0085 ± 0.0035 | 0.0015 ± 0.0078 | 0.0045 ± 0.018 | -0.001 ± 0.0028 | 0.015 | 0.004 ± 0.0085 | -0.204 ± 0.11 | -0.001 ± 0.013 | 0.001 ± 0.0014 | 0.0025 ± 0.0078 | 0.0095 ± 0.023 | -0.0015 ± 0.019 | -0.002 ± 0.02 | 0.0005 ± 0.005 | 0.002 ± 0.0057 | 0.004 ± 0.0099 | 0.0025 ± 0.028 | 0.0015 ± 0.015
HDF3CGF:CXCL9/MIG | 0.0005 ± 0.03 | -0.023 ± 0.021 | -0.0015 ± 0.03 | -0.01 ± 0.047 | -0.0055 ± 0.0035 | -0.0125 ± 0.028 | 0.004 ± 0.0042 | -0.018 ± 0.0085 | -0.027 ± 0.0099 | -0.011 ± 0.048 | -0.017 ± 0.018 | 0.0005 ± 0.0078 | 0.0055 ± 0.00071 | -0.0065 ± 0.012 | -0.0025 ± 0.0035 | -0.0255 ± 0.019 | -0.091 ± 0.082 | -0.203 ± 0.011 | -0.761 ± 0.11 | -0.0245 ± 0.00071 | -0.0015 ± 0.033 | -0.0035 ± 0.025 | -0.0125 ± 0.028 | -0.0105 ± 0.016 | -0.016 ± 0.041 | -0.004 ± 0.028 | 0.003 ± 0.0042 | -0.0025 ± 0.035 | 0.024 ± 0.052 | -0.0075 ± 0.015
HDF3CGF:CXCL10/IP-10 | -0.0185 ± 0.029 | -0.02 ± 0.014 | -0.0135 ± 0.015 | -0.0025 ± 0.025 | 0.008 ± 0.0071 | -0.0025 ± 0.03 | -0.039 ± 0.0057 | 0.0075 ± 0.028 | 0.0105 ± 0.026 | -0.008 ± 0.023 | -0.0125 ± 0.0092 | -0.0085 ± 0.0021 | -0.001 ± 0.0014 | -0.0065 ± 0.0021 | 0.002 ± 0.011 | 0.0125 ± 0.0092 | -0.079 ± 0.05 | -0.216 ± 0.011 | -0.893 ± 0.047 | 0.0155 ± 0.0078 | -0.0145 ± 0.016 | 0.0025 ± 0.0021 | 0.0085 ± 0.012 | 0.012 ± 0.0071 | -0.0165 ± 0.005 | -0.0135 ± 0.029 | -0.019 ± 0.0028 | -0.005 ± 0.028 | -0.008 ± 0.011 | 0.003 ± 0.027
HDF3CGF:CXCL11/I-TAC | -0.031 ± 0.013 | 0.0055 ± 0.011 | -0.012 ± 0.058 | -0.02 ± 0.014 | -0.0105 ± 0.012 | -0.004 ± 0.0014 | -0.055 ± 0.0028 | -0.026 ± 0.055 | -0.006 ± 0.035 | -0.01 ± 0.017 | -0.0565 ± 0.083 | -0.0115 ± 0.023 | -0.0035 ± 0.016 | -0.002 ± 0.013 | -0.002 ± 0.027 | -0.006 ± 0.018 | -0.079 ± 0.0028 | -0.111 ± 0.013 | -0.492 ± 0.028 | -0.006 ± 0.035 | -0.0155 ± 0.071 | 0.003 ± 0.0071 | 0.0125 ± 0.0035 | 0.0045 ± 0.03 | -0.018 | -0.01 ± 0.0085 | -0.0005 ± 0.0078 | 0.0085 ± 0.022 | 0.0065 ± 0.042 | 0.0085 ± 0.023
HDF3CGF:Collagen I | -0.0075 ± 0.042 | -0.003 ± 0.016 | 0.0205 ± 0.012 | 0.0195 ± 0.091 | 0.0575 ± 0.047 | 0.03 ± 0.013 | -0.019 ± 0.065 | 0.0205 ± 0.11 | -0.037 ± 0.028 | 0.006 ± 0.037 | 0.0665 ± 0.12 | 0.0305 ± 0.1 | -0.005 ± 0.058 | 0.005 ± 0.021 | 0.027 ± 0.02 | 0.0245 ± 0.079 | -0.0035 ± 0.028 | 0.08 ± 0.037 | -0.0535 ± 0.046 | 0.029 ± 0.088 | -0.0445 ± 0.028 | -0.024 ± 0.072 | 0.0525 ± 0.029 | 0.013 ± 0.062 | 0.0465 ± 0.044 | 0.015 ± 0.09 | 0.0455 ± 0.067 | 0.032 ± 0.061 | 0.012 ± 0.048 | 0.046 ± 0.042
HDF3CGF:Collagen III | 0.011 ± 0.0085 | 0 ± 0.016 | 0.059 ± 0.041 | 0.003 ± 0.037 | 0.0145 ± 0.013 | 0.016 ± 0.041 | -0.0295 ± 0.15 | -0.013 ± 0.017 | -0.001 ± 0.02 | -0.026 ± 0.082 | -0.077 ± 0.031 | -0.009 ± 0.014 | -0.011 ± 0.0042 | -0.0155 ± 0.012 | -0.0165 ± 0.00071 | 0.0025 ± 0.028 | -0.003 ± 0.052 | -0.0345 ± 0.012 | -0.449 ± 0.019 | -0.0155 ± 0.019 | -0.005 ± 0.088 | 0.03 ± 0.054 | 0.072 ± 0.042 | 0.03 ± 0.055 | 0.0465 ± 0.0064 | -0.0195 ± 0.05 | -0.021 ± 0.0028 | 0.0045 ± 0.0078 | 0.0125 ± 0.052 | 0.0055 ± 0.018
